{
  "sequences": {"note": "Chains of the proteins cited; added tags and fusions are not shown. Lines headed by an entry give the natural chain unless they say otherwise; changes in a name come on top.", "UniProt P49454": "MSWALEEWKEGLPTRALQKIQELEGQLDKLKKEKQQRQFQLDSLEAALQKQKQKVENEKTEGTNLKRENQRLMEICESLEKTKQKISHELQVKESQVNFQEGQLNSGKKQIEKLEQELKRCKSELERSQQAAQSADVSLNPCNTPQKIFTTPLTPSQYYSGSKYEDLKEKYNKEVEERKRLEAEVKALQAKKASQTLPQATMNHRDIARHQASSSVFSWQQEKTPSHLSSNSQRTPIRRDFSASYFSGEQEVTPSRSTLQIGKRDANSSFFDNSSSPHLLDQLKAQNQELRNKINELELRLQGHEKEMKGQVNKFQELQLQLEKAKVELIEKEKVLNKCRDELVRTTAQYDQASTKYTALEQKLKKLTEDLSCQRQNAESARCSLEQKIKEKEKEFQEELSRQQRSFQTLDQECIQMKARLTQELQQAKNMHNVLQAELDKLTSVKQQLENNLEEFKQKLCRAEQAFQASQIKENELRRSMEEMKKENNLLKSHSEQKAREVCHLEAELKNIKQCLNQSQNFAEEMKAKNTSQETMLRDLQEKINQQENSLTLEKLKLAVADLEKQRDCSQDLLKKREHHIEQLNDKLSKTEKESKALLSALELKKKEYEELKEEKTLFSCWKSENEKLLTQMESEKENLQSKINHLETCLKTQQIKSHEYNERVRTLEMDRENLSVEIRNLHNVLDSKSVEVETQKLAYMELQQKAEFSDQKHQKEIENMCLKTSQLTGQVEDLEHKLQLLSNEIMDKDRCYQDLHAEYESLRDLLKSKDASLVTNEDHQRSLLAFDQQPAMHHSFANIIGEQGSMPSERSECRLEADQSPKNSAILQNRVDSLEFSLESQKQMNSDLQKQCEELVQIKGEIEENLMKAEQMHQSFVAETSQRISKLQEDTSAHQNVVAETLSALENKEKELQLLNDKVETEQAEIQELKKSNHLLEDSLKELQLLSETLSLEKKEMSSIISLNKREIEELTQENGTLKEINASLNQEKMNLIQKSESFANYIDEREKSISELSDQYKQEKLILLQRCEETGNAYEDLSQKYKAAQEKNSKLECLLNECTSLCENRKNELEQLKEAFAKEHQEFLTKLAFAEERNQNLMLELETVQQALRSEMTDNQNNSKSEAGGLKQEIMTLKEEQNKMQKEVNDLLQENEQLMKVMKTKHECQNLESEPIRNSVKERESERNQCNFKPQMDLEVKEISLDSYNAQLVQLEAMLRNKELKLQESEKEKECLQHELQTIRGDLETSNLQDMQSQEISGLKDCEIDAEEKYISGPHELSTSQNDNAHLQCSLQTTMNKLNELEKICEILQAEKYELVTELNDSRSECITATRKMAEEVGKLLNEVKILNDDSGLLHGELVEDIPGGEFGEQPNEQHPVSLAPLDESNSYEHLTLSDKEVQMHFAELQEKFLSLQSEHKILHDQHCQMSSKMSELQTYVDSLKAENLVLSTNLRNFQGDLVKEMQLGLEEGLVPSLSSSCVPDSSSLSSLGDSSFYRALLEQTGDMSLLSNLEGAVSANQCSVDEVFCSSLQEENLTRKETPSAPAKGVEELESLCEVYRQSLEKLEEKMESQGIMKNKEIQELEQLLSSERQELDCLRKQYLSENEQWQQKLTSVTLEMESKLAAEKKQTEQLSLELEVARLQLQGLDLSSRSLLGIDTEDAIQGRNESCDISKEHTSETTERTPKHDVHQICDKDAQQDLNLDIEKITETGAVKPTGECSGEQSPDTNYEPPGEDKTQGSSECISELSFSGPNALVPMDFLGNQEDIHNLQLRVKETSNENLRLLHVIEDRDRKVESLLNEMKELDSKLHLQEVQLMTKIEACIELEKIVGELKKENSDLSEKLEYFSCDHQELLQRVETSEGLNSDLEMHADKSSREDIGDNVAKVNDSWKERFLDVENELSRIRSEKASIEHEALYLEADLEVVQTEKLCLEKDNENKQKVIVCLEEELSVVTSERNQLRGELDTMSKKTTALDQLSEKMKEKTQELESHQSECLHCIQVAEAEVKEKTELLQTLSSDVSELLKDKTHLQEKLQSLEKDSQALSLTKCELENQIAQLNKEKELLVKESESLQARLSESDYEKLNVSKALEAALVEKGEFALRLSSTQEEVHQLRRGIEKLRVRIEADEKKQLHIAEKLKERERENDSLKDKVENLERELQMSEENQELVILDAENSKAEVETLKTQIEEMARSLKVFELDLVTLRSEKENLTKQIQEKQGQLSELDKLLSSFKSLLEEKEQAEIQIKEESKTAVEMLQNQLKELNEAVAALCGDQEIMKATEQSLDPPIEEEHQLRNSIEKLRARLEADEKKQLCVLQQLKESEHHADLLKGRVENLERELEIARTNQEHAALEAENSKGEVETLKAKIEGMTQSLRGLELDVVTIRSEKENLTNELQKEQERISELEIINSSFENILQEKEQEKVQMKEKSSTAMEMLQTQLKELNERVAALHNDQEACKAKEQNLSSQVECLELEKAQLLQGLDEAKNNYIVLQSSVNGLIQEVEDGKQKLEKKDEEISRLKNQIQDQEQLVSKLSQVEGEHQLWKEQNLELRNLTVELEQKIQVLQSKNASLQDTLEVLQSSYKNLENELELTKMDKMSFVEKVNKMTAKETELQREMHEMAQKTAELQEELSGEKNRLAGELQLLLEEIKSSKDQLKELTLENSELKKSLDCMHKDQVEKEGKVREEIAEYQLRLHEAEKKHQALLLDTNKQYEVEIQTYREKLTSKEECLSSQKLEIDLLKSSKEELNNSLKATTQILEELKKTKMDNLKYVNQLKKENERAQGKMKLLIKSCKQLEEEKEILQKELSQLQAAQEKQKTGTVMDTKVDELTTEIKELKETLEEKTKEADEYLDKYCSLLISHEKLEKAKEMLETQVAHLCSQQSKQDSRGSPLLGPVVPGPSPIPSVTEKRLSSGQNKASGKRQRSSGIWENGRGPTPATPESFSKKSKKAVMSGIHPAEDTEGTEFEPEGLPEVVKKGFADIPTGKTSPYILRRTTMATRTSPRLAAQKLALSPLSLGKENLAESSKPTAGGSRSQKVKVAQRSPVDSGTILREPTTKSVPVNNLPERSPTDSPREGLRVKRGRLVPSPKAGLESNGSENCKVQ", "UniProt P42773": "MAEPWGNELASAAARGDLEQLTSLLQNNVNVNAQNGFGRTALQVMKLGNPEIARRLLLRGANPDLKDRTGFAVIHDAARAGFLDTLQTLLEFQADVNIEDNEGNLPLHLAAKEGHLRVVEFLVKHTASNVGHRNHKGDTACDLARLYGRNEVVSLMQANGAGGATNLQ", "UniProt Q96SN8": "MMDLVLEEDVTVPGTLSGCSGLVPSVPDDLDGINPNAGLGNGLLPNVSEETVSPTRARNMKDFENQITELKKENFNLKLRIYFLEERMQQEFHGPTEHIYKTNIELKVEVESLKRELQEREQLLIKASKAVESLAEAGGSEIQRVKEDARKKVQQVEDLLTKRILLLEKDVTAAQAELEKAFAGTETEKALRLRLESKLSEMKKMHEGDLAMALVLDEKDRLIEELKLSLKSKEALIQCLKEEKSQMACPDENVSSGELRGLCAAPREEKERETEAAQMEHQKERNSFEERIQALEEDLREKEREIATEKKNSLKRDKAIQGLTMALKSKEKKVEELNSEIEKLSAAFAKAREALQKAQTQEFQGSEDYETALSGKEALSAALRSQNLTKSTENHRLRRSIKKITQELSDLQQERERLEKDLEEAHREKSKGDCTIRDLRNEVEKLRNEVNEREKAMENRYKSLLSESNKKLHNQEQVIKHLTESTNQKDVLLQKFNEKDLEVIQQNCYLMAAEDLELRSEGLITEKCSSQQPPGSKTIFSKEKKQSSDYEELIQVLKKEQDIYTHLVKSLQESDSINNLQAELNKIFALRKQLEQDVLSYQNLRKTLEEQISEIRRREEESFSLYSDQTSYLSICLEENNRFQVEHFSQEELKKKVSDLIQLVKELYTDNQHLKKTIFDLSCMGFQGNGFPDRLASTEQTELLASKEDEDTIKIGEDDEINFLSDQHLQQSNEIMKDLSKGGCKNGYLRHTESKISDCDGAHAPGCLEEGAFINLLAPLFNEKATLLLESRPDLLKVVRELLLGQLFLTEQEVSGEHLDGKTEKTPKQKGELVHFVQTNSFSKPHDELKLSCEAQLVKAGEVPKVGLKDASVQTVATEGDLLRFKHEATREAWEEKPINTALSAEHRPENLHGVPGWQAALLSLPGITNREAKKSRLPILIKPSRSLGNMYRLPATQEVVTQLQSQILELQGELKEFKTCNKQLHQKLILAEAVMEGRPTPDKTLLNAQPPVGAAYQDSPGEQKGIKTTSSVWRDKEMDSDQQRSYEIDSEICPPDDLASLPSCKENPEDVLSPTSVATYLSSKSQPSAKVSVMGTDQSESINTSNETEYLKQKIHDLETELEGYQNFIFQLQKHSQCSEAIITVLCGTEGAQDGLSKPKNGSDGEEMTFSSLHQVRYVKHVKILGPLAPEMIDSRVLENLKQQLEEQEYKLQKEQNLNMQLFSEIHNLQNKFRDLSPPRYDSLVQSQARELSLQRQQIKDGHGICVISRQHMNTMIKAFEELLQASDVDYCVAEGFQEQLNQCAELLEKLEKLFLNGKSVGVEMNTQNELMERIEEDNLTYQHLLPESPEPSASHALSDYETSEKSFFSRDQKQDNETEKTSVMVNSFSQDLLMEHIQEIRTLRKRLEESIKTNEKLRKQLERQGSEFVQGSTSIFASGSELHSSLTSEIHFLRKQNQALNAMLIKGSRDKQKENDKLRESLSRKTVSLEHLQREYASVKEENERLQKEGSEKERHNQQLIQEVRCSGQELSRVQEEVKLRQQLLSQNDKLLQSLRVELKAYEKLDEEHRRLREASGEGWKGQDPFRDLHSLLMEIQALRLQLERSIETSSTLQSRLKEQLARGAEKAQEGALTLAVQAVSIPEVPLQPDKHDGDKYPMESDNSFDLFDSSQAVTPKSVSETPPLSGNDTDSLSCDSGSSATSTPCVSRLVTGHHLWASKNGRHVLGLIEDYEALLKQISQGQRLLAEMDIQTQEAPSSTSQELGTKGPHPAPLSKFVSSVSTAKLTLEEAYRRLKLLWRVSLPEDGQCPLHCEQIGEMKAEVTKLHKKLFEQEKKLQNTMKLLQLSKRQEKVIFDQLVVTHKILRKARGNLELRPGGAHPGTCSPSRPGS", "UniProt Q53EZ4": "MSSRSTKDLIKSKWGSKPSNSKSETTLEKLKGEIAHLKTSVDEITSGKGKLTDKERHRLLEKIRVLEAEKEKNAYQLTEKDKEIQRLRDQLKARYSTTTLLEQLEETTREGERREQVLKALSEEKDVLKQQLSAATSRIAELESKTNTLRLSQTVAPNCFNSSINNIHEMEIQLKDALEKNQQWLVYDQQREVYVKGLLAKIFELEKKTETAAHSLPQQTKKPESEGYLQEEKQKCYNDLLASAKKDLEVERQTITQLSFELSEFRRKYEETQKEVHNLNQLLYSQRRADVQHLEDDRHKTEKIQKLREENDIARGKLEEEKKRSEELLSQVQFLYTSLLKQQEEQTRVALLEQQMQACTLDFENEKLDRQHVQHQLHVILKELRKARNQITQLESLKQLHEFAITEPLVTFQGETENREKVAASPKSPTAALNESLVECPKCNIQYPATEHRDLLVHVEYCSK", "UniProt Q5T0F9": "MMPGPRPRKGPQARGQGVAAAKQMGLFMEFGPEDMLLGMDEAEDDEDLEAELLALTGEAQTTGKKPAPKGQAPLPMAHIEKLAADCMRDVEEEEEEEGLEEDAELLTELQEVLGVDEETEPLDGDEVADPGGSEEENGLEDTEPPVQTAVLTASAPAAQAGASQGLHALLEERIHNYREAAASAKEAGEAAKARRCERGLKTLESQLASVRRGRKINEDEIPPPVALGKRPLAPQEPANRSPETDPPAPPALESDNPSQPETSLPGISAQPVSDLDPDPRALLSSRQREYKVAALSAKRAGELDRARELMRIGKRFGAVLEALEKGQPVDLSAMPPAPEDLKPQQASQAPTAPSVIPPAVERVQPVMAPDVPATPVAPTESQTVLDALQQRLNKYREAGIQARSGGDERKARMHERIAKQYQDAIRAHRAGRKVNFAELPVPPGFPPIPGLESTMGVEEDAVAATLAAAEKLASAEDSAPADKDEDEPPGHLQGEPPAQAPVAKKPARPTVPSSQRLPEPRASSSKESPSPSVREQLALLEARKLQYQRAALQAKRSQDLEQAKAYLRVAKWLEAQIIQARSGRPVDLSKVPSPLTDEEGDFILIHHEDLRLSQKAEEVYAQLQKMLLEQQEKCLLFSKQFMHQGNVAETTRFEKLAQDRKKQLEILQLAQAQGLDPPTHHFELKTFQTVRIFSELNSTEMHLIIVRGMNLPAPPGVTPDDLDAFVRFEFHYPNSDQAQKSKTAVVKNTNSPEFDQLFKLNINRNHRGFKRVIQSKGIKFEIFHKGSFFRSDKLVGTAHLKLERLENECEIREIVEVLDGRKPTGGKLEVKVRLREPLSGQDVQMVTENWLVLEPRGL"},
  "source": "the supplement of paper PMC11732987",
  "about": "“Enantioselective OTUD7B fragment discovery through chemoproteomics screening and high-throughput optimisation” (Communications Chemistry, 2025)",
  "note": "This is one part of the list. The data scatter; read single values as rough.",
  "data": [
    {"compound": "ClCC(=O)N[C@@H]1CCCc2ccccc12", "assay": "log2 mean competition ratio of IA-DTB cysteine labelling (DMSO/compound) (log2 ratio); higher = stronger cysteine engagement by compound", "settings": "50 µM; treatment time: 4 h; cell line lysate: HEK293T", "protocol": "(§1)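 IA-DTB competitive cysteine chemoproteomics in HEK293T RIPA lysate. Lysates were treated with compound 29 or 30 at 50 or 200 µM for 4 h, then IA-DTB (500 µM, 1 h), trypsin-digested, NeutrAvidin-enriched and analysed by diaPASEF. Competition ratio = intensity DMSO / intensity compound (n=4 treated, n=64 DMSO); binding: mean log2 CR ≥ 1 and p ≤ 0.05 plus QC filters. Target is the cysteine site.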", "values": [
      {"target": "CDK5RAP3 C150 (UniProt Q96JB5)", "log2 mean competition ratio": -0.0942},
      {"target": "CCSER1 C230", "log2 mean competition ratio": -0.0232},
      {"target": "CENPF C650 (UniProt P49454)", "log2 mean competition ratio": -0.0747},
      {"target": "CHAF1A C465 (UniProt Q13111)", "log2 mean competition ratio": 0.077},
      {"target": "CDC34 C191 (UniProt P49427)", "log2 mean competition ratio": -0.332},
      {"target": "CHD1L C135 (UniProt Q86WJ1)", "log2 mean competition ratio": -0.224},
      {"target": "CENPF C373 (UniProt P49454)", "log2 mean competition ratio": -0.0577},
      {"target": "CFAP298 C83 (UniProt P57076)", "log2 mean competition ratio": -0.0952},
      {"target": "CDR2 C367 (UniProt Q01850)", "log2 mean competition ratio": 0.224},
      {"target": "CENPF C503 (UniProt P49454)", "log2 mean competition ratio": 0.0166},
      {"target": "CDC6 C156 (UniProt Q99741)", "log2 mean competition ratio": -0.0145},
      {"target": "CDKN2C C141 (UniProt P42773)", "log2 mean competition ratio": -0.0786},
      {"target": "CDK5RAP2 C528 (UniProt Q96SN8)", "log2 mean competition ratio": -0.000374},
      {"target": "CEP55 C443 (UniProt Q53EZ4)", "log2 mean competition ratio": 0.273},
      {"target": "CDC42BPB C784 (UniProt Q9Y5S2)", "log2 mean competition ratio": 0.0272},
      {"target": "CDC23 C442 (UniProt Q9UJX2)", "log2 mean competition ratio": 0.237},
      {"target": "CCDC106 C184", "log2 mean competition ratio": -0.0192},
      {"target": "CDCA2 C315 (UniProt Q69YH5)", "log2 mean competition ratio": -0.125},
      {"target": "CENPE C2116 (UniProt Q02224)", "log2 mean competition ratio": 0.264},
      {"target": "CC2D1B C809 (UniProt Q5T0F9)", "log2 mean competition ratio": -0.0895}
    ]},
    {"compound": "ClCC(=O)N[C@@H]1CCCc2ccccc12", "assay": "log2 mean competition ratio of IA-DTB cysteine labelling (DMSO/compound) (log2 ratio); higher = stronger cysteine engagement by compound", "settings": "200 µM; treatment time: 4 h; cell line lysate: HEK293T", "protocol": "as §1", "values": [
      {"target": "CDK5RAP3 C150 (UniProt Q96JB5)", "log2 mean competition ratio": -0.0794},
      {"target": "CCSER1 C230", "log2 mean competition ratio": 0.0765},
      {"target": "CENPF C650 (UniProt P49454)", "log2 mean competition ratio": -0.0962},
      {"target": "CHAF1A C465 (UniProt Q13111)", "log2 mean competition ratio": 0.0853},
      {"target": "CDC34 C191 (UniProt P49427)", "log2 mean competition ratio": 0.0679},
      {"target": "CHD1L C135 (UniProt Q86WJ1)", "log2 mean competition ratio": -0.251},
      {"target": "CENPF C373 (UniProt P49454)", "log2 mean competition ratio": 0.0149},
      {"target": "CFAP298 C83 (UniProt P57076)", "log2 mean competition ratio": -0.107},
      {"target": "CDR2 C367 (UniProt Q01850)", "log2 mean competition ratio": -0.0972},
      {"target": "CENPF C503 (UniProt P49454)", "log2 mean competition ratio": 0.118},
      {"target": "CDC6 C156 (UniProt Q99741)", "log2 mean competition ratio": -0.701},
      {"target": "CDKN2C C141 (UniProt P42773)", "log2 mean competition ratio": 0.0072},
      {"target": "CDK5RAP2 C528 (UniProt Q96SN8)", "log2 mean competition ratio": 0.137},
      {"target": "CEP55 C443 (UniProt Q53EZ4)", "log2 mean competition ratio": -0.2},
      {"target": "CDC42BPB C784 (UniProt Q9Y5S2)", "log2 mean competition ratio": -0.199},
      {"target": "CDC23 C442 (UniProt Q9UJX2)", "log2 mean competition ratio": -0.13},
      {"target": "CCDC106 C184", "log2 mean competition ratio": 0.228},
      {"target": "CENPV C219 (UniProt Q7Z7K6)", "log2 mean competition ratio": 0.182},
      {"target": "CDCA2 C315 (UniProt Q69YH5)", "log2 mean competition ratio": 0.185},
      {"target": "CENPE C2116 (UniProt Q02224)", "log2 mean competition ratio": 0.332},
      {"target": "CC2D1B C809 (UniProt Q5T0F9)", "log2 mean competition ratio": -0.0386}
    ]}
  ]
}
